According to article PMC4632003:

Tests used:
[1] = target: T1, CHCHD6 (human (endogenous in HeLa)) (UniProt Q9BRQ6); test: co-IP; IP of endogenous Mitofilin or CHCHD6 from HeLa lysate (control cells; Mitofilin IP also from CHCHD6-knockout cells) with antibody crosslinked to protein A Sepharose beads, overnight at 4 °C, washed with cold PBS; immunoblot
T1 sequence: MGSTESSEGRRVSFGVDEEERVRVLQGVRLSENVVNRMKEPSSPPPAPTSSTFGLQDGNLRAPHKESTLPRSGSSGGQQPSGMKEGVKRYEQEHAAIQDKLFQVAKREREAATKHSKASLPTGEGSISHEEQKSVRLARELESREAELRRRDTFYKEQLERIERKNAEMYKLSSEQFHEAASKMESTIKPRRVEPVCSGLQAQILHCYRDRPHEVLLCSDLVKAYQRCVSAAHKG

[2] = target: T2, Mitofilin (human (endogenous in HeLa)) (UniProt Q16891); test: as above
T2 sequence: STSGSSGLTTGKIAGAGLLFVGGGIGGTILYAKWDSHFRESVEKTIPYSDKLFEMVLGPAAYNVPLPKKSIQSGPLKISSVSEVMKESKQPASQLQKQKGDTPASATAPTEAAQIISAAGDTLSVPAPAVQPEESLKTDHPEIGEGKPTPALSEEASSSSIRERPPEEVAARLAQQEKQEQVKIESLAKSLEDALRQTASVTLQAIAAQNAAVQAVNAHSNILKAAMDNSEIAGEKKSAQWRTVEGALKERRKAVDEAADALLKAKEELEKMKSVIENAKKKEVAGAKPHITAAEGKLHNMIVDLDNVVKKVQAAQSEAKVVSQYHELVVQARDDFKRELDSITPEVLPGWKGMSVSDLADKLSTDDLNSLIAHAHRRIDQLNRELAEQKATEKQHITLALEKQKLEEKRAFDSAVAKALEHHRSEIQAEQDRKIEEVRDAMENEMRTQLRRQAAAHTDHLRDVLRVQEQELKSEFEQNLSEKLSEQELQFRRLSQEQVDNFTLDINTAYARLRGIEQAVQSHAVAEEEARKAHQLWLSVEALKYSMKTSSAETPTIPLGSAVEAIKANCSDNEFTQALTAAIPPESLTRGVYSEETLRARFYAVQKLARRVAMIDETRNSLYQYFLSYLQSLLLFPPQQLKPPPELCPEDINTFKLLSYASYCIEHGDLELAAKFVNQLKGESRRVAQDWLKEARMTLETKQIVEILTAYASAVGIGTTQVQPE

| Substance | binding [1] | binding [2] |
| --- | --- | --- |
| OPA1, long form (human (endogenous in HeLa)) | no binding | no binding |
| OPA1, soluble form (human (endogenous in HeLa)) | binds | binds |

No constants are given. Whether binding was seen depends on the method and setting. In cells and extracts the contact can be indirect. Binding can be weak; no strength is given.
